Experimental data from PMC11234212.
No constants are given. Whether binding was seen depends on the method and setting. In cells and extracts the contact can be indirect. These calls come from enrichment with a bait or labelling near it, and not all partners need be listed.

Chains of the proteins cited; added tags and fusions are not shown.
UniProt Q9UKM9: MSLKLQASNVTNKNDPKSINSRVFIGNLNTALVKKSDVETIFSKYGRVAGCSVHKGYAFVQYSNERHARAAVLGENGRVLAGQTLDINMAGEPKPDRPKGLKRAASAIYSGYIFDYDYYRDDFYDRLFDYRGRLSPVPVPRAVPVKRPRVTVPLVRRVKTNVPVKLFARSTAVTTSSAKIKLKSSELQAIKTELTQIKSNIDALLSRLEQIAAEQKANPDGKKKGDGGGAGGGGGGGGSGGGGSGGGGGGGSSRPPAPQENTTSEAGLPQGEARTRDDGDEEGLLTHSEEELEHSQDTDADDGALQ

Target: T1, O-GlcNAc transferase (OGT) (human (endogenous in Hep3B and Huh7)) (UniProt O15294)
T1 sequence: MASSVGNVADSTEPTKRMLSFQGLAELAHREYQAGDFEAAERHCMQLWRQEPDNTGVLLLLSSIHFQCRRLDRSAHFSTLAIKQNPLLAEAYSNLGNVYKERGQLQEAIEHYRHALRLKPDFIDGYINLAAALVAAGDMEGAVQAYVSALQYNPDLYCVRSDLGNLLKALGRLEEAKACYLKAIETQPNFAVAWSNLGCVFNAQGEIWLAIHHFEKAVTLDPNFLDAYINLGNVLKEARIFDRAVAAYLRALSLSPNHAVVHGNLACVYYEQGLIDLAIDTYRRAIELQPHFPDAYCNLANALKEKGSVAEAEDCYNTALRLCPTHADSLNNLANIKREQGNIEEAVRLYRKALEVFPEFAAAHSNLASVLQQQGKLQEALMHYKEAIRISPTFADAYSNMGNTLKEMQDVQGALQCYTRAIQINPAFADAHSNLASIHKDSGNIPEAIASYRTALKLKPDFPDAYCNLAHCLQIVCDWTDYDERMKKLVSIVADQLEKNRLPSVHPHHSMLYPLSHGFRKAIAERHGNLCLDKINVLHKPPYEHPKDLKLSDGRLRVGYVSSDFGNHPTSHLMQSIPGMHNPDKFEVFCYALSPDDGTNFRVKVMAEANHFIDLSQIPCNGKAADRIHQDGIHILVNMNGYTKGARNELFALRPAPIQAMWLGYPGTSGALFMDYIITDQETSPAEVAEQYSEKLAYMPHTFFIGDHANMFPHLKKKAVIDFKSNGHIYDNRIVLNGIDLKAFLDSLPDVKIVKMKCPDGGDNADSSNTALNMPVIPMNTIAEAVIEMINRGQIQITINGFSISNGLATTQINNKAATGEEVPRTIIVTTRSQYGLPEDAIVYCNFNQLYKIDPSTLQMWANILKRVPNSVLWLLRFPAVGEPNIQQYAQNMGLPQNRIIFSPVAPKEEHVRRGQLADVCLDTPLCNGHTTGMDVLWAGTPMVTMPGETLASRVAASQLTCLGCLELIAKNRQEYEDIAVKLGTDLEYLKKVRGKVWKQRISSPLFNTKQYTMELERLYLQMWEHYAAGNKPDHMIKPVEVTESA
Test: affinity purification with mass spectrometry; IP-MS of proteins bound with OGT in Hep3B and BEL7402 cells; overlap of the two lists

binding: binds
Substance: RALY (from UniProt Q9UKM9 1-306)
